Measurements as given in the supplement of paper PMC9262897, “Low-cost anti-mycobacterial drug discovery using engineered E. coli” (Nature Communications, 2022).
Structures can show the parent of a compound that is named as a salt. ± gives the standard deviation of the averaged measurements. Most of the lowest values are listed elsewhere, so they are rarer here than in the full data.

Test system: E. coli TESEC Alr+ wild-type control
Assay: growth (OD600 after 10 h); higher = more growth (less inhibition)
Conditions: compound 0.1 mM; raw OD600 reference: median of DMSO wells 0.49, cell-free background 0.052
Protocol: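 TESEC Mtb Alr E. coli (ΔaraC ΔtolC ΔentC Δalr ΔdadX, arabinose-inducible Mtb Alr) or the Alr+ wild-type control strain, grown in defined M9-fructose medium without D-alanine in 96-well plates with Prestwick library compounds at 0.1 mM and 1% DMSO. Low Alr induction is 0.1 µM arabinose and high induction is 10 mM arabinose.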

SMILES	growth
CN1[C@@H]2CC[C@H]1C[C@@H](OC(=O)C(O)c1ccccc1)C2 (mixture of isomers) [Homatropine hydrobromide (R,S)]	0.538 ± 0.018
